These results are taken from the supplement of paper PMC3741180, “A Novel High Throughput Biochemical Assay to Evaluate the HuR Protein-RNA Complex Formation” (PLoS ONE, 2013).

Amino acid sequences for entries named in this document (tags omitted).
UniProt Q15717, whole entry: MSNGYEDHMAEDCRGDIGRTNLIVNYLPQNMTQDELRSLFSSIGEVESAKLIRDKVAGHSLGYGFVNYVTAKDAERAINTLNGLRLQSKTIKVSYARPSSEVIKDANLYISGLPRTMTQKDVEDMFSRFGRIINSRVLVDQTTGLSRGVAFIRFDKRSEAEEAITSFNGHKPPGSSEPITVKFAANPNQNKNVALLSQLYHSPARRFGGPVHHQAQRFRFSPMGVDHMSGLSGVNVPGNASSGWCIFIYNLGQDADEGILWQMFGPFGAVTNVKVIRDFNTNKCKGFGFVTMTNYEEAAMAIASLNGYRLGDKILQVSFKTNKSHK

The other results are listed elsewhere or left out. Most values lie within the scatter of the assay; repeated measurements hardly agree.

This assay has as its target HuR (ELAVL1) - TNFalpha ARE RNA complex (UniProt Q15717). Description: AlphaScreen HuR-RNA complex signal Z-score relative to positive controls (secondary screen) (Z-score (SD units of positive control)); higher = more complex signal. The settings on record: screen stage: secondary re-screen.
As for `CO/N=C(\C(=O)N[C@@H]1C(=O)N2C(C(=O)OCOC(=O)C(C)(C)C)=C(/C=C\c3scnc3C)CS[C@H]12)c1csc(N)n1`, the “AlphaScreen HuR-RNA complex signal Z-score” value stood at 0.0455.
Take `Oc1ccc(Cl)c2cccnc12`: the “AlphaScreen HuR-RNA complex signal Z-score” value is 0.491.
The same measure for `CCN(CC)CCCC(C)Nc1c2ccc(Cl)cc2nc2ccc(OC)cc12` (configuration not stated): 1.87; for `Clc1ccccc1C(c1ccccc1)(c1ccccc1)n1ccnc1`: 0.655.
Regarding `CCN(CC)CCOc1ccc(C(=C(Cl)c2ccccc2)c2ccccc2)cc1`, the “AlphaScreen HuR-RNA complex signal Z-score” value was -0.708.
For `N[C@@H](CSCSC[C@H](N)C(=O)O)C(=O)O`, the “AlphaScreen HuR-RNA complex signal Z-score” value stood at 0.337.
As to `CCn1cc(C(=O)O)c(=O)c2cc(F)c(N3CCN(C)CC3)cc21`, the “AlphaScreen HuR-RNA complex signal Z-score” value is -0.244.
The value for `CN1CCN(C(c2ccccc2)c2ccc(Cl)cc2)CC1` (configuration not stated) was 0.622.
The value for `CCCCCCCCCc1ccc(OCCOCCOCCOCCOCCOCCOCCOCCOCCO)cc1` was -0.331; that for `COC(=O)[C@H](OC(C)=O)[C@H]1C(C)(C)[C@H](OC(C)=O)[C@@H]2CC3=C4CC(=O)O[C@@H](c5ccoc5)[C@]4(C)CC[C@@H]3[C@@]1(C)C2=O` was -0.463.
On to `CCCCc1nc(Cl)c(CO)n1Cc1ccc(-c2ccccc2-c2nnn[nH]2)cc1`, for which the “AlphaScreen HuR-RNA complex signal Z-score” value turned out to be 2.5.
The same measure for `C[C@H](N)[C@H](O)c1cccc(O)c1`: 2.26.
Consider `CN1CCC[C@@H]1CCO[C@](C)(c1ccccc1)c1ccc(Cl)cc1`, for which the “AlphaScreen HuR-RNA complex signal Z-score” value was 1.21.
The value for `CCCN(CCC)S(=O)(=O)c1ccc(C(=O)O)cc1` was 1.23; that for `COc1c(O)cc2c(-c3ccccc3)cc(=O)oc2c1OC` was 1.94.
Regarding `C[C@H]1COc2c(N3CCN(C)CC3)c(F)cc3c(=O)c(C(=O)O)cn1c23`, the “AlphaScreen HuR-RNA complex signal Z-score” value was 2.11.
For `NS(=O)(=O)c1cc2c(cc1Cl)NCNS2(=O)=O`, the “AlphaScreen HuR-RNA complex signal Z-score” value was determined as 0.985.
